Reference: PMC8805147
Results are given in words; binding and its absence hold for the method and conditions named. Some binding calls cover weakened binding; strength is not graded here.

Chains of the proteins cited; added tags and fusions are not shown. Residues count along the entry.
UniProt P41317, residues 19-244: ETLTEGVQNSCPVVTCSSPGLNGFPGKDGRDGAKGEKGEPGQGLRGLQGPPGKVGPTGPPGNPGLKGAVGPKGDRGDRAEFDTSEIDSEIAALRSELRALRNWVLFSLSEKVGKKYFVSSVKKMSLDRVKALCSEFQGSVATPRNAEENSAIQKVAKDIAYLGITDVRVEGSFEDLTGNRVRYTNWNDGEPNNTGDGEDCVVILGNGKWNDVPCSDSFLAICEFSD
UniProt P03101: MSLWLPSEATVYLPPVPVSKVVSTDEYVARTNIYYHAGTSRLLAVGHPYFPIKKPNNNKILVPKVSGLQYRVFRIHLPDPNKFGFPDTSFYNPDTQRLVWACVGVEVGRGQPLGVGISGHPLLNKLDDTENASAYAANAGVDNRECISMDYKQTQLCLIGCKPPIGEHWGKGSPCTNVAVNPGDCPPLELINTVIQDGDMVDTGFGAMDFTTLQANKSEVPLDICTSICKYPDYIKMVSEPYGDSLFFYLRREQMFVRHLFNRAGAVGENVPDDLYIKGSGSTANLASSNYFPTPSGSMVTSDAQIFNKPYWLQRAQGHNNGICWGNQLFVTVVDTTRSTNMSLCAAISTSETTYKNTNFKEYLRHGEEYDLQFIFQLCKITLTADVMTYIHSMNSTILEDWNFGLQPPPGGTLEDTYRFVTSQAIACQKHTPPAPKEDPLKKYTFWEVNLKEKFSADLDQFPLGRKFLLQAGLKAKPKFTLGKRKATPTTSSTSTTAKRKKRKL

Target: recombinant murine MBL2 (mannose-binding lectin), biotinylated (mouse) (UniProt P41317)
Experiment: BLI; biotinylated murine MBL2 (1 ug/mL) loaded on streptavidin sensors; dilutions of antigen formulations in solution; PBS with 1% BSA and 0.1 M CaCl; Octet RED96; both purified

Substance: human papillomavirus 16 L1 virus-like particles (HPV16 L1), unmodified (from UniProt P03101 1-505)
- binding: binds
